Measurements taken from the supplement of paper PMC11006884.
What follows is the remainder of the data, with few or none of the targets with a hit. Single values of this set are uncertain. The entries are a selection whose mix differs from that of the whole data set.

The targets below were run with COC(=O)/C=C/c1ccccc1 [methyl cinnamate] (assay: log2 ratio of iodoacetamide-alkyne labeling of the cysteine site, DMSO over compound (competition); higher = stronger covalent engagement of the cysteine by the compound, active = 1 or more). Settings: 500 µM; treatment time 1 h; system: HEK293T cell lysate.
Outline: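 Reporter intensities give each cysteine's log2 competition ratio as the mean of control channels over the mean of compound channels. The samples were HEK293T lysate (2 mg/mL) given vehicle or electrophile (500 µM, 1 h, ambient temperature), then iodoacetamide alkyne (1 h), followed by click coupling to sCIP-TMT reagents, pooling, trypsin digestion overnight at 37 °C, streptavidin enrichment, acid elution, Orbitrap Eclipse LC-MS/MS with FAIMS and FragPipe quantification. Duplicate channels and three replicates were run, and cysteines quantified in only one replicate were discarded.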

log2 ratio of iodoacetamide-alkyne labeling, inactive:
WRNIP1 C272 (UniProt Q96S55) 0.0813
ZNF830 C314 (UniProt Q96NB3) -0.062
USP28 C142 (UniProt Q96RU2) 0.386
NUP88 C561 (UniProt Q99567) 0.0381
MYBBP1A C623 (UniProt Q9BQG0) 0.0782
CCT7 C345 (UniProt Q99832) 0.146
AGAP3 C356 (UniProt Q96P47) 0.442
SRPK1 C647 (UniProt Q96SB4) 0.361
DNAJC2 C394 (UniProt Q99543) -0.183
NCAPG C177 (UniProt Q9BPX3) 0.135
IWS1 C749 (UniProt Q96ST2) 0.341
NUDCD1 C32 (UniProt Q96RS6) 0.24
PSMD1 C633 (UniProt Q99460) -0.293
WDFY2 C290 (UniProt Q96P53) -0.0588
UHRF1 C170 (UniProt Q96T88) 0.187
SCYL1 C512 (UniProt Q96KG9) 0.0134
RNF5 C30 (UniProt Q99942) 0.0227
MMS19 C723 (UniProt Q96T76) -0.297
PDLIM2 C289 (UniProt Q96JY6) -0.0385
VPS13A C582 (UniProt Q96RL7) 0.387
PBK C70 (UniProt Q96KB5) 0.0917
KIF2C C287 (UniProt Q99661) 0.197
PUS7 C443 (UniProt Q96PZ0) 0.104
SPAG5 C382 (UniProt Q96R06) 0.16
UniProt Q96JM3_C194 0.282
EHMT2 C866 (UniProt Q96KQ7) 0.101
ELAC2 C51 (UniProt Q9BQ52) -0.0525
RANBP9 C719 (UniProt Q96S59) 0.173
CRBN C287 (UniProt Q96SW2) 0.342
CDC5L C769 (UniProt Q99459) 0.111
SPEN C1134 (UniProt Q96T58) -0.289
DOK1 C115 (UniProt Q99704) -0.0836
SUCLG2 C162 (UniProt Q96I99) 0.249
PNKP C516 (UniProt Q96T60) 0.18
MYBBP1A C305 (UniProt Q9BQG0) -0.0479
ACO2 C451 (UniProt Q99798) 0.0944
SPEN C877 (UniProt Q96T58) 0.289

Taken from the entries so far (three entries):
log2 ratio of iodoacetamide-alkyne labeling, inactive:
WDFY2 C290 (UniProt Q96P53) -0.0588
UHRF1 C170 (UniProt Q96T88) 0.187
SCYL1 C512 (UniProt Q96KG9) 0.0134
